For at least one entry, the source does not settle the construct or the ends of the probe. For some of these results: Where cells or extracts were used, other partners may take part.
Legend:
[1] = molecular target: MGR p70 (mammalian grainyhead, p70 isoform) (human) (UniProt Q9NZI5); assay: EMSA; settings: JEG-3 nuclear extract, protein in an extract
[2] = molecular target: MGR p70 (mammalian grainyhead, p70 isoform) (human) (UniProt Q9NZI5); assay: competition with a labelled probe; settings: 10- or 20-fold excess unlabeled En-1 probe markedly reduced MGR binding to Ddc probe in EMSA; JEG-3 nuclear extract; protein in an extract
[3] = molecular target: MGR p70 (mammalian grainyhead, p70 isoform) (human) (UniProt Q9NZI5); assay: activity in cells; settings: p70 MGR enhanced luciferase from En-1 promoter region linked to minimal gamma-globin promoter in COS cells; no effect on control promoters; protein in cells; protein details: mammalian expression vector in COS cells

Sequence: GGTGGTGCTCTAATAACCGGTTTCCAAGATGCGC (double strand) [Drosophila Dopa decarboxylase (Ddc) promoter probe]
- binding result ([1]; supershifted by antisera 67, ablated by 50-fold excess unlabeled Ddc probe): binds

Sequence: GGACACACACCCAAACCCACACCCACCCACAAACACACAAACCGGCAGTGACAACAACCACCCATCCTTCAATAACAGCAACCA (double strand) [human Engrailed-1 proximal promoter probe]
- binding result [2]: binds
- activity on this sequence [3]: active

Sequence: GGGTAAAAAGTGTGAACAATCAAACCAGTTGGCA (double strand) [Drosophila PCNA promoter probe]
- binding result ([1]; complex supershifted by anti-p70 antisera 67 and ablated by antisera 611 (common to p49/p70)): binds

— US20060162001
